Data set [1] addresses HuR full length (rHuR) (human) (UniProt Q15717). Kind of data set: AlphaScreen. As to conditions: no DHTS, constant from ref 23 used for Ki fits; recombinant protein; residues 1-326; protein details: cMyc-His; label: 5'-biotin. Background: Bead proximity is the source of the signal in Alpha formats.
The target in data set [2] is hnRNP-D/AUF1, endogenous MCF-7 (human) (UniProt Q14103). Kind of data set: pull-down. Conditions: 0.5 uM RNA, DHTS difference only upon LPS; pull-down lysates: 20 mM HEPES pH 7.5, 50 mM KCl, 0.5 ug BSA, 0.25% glycerol, 4 C; protein in an extract; label: 5'-biotin.
Data set [3] concerns the target HuR, endogenous MCF-7 (human) (UniProt Q15717). Nature of the data set: pull-down. Conditions: 0.5 uM RNA, reduced in lysate of DHTS-treated cells; pull-down lysates: 20 mM HEPES pH 7.5, 50 mM KCl, 0.5 ug BSA, 0.25% glycerol, 4 C; protein in an extract; label: 5'-biotin.

Amino acid sequences for entries named in this document (tags omitted). A change or cut given only in a name is not applied to a line headed by its entry.
UniProt Q15717, whole entry: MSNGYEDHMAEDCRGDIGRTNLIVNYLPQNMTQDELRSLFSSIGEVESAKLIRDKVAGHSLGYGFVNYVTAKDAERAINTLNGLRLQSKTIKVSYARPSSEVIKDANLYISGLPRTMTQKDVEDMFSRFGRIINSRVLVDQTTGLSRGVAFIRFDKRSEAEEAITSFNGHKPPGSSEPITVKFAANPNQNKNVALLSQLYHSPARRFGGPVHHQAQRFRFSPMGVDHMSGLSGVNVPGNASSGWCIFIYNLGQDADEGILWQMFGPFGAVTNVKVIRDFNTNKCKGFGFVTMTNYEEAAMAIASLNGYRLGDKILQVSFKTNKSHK
UniProt Q14103: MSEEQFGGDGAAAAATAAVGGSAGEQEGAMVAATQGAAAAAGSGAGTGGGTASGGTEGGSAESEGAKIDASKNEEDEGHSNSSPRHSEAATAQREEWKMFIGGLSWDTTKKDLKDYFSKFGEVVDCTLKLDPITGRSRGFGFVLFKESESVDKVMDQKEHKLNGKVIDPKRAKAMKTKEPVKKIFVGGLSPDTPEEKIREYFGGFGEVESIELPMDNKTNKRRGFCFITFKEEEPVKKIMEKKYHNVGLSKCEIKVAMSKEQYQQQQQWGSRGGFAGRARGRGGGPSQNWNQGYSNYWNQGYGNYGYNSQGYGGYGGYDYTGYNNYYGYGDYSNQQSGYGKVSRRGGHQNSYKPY

For at least one entry, the source does not settle the construct or the ends of the probe. For part of these data: At least one result comes from cells or an extract, where the contact may be indirect. For part of these data: At least one verdict was read from the data and is not stated in words by the source.

By Kd is commonly meant the concentration at which binding is half-saturated. With AUUAUUUAUUAUUUAUUUAUUAUUUA [BiTNF], the Kd in data set [1] is 2.5 nM. Also, the binding result in data set [2] and in data set [3] was “binds” each time.
